# From the supplement of paper PMC3334620
# Whole data set: some 33,000 sequences, median “E-score (-0.5 to 0.5)” near -0.0034, cut for the highest 2% near 0.25. The list shows a part of the results.
# Target: T1, Yap3 (UniProt P38749)
# T1 sequence: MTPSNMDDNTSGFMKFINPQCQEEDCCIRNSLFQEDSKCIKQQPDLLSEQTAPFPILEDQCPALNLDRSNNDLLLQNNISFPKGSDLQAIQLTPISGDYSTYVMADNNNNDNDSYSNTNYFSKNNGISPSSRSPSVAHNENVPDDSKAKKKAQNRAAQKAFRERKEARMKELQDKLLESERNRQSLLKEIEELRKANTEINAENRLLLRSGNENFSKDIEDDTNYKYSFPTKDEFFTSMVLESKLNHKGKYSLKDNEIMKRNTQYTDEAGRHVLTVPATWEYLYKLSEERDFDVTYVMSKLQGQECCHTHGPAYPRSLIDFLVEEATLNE
# Assay: PBM E-score (8-mer binding enrichment) (E-score (-0.5 to 0.5)); higher = stronger / more preferred TF binding
# Details: protein concentration: 100 nM; construct: GST-full length
# Experimental: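 Universal 'all 10-mer' protein binding microarrays (Agilent AMADID 015681) probed with GST-tagged S. cerevisiae TFs (full-length or DBD) made by in vitro transcription/translation (PURExpress), about 100-200 nM. Bound TF was detected with fluorescent anti-GST. Each ungapped 8-mer (which stands for itself and its reverse complement) is scored by the PBM enrichment score (E-score), a modified Wilcoxon-Mann-Whitney statistic from -0.5 to +0.5, computed with the Universal PBM Analysis Suite. Scale: above 0.35 generally sequence-specific binding.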
row,Sequence,PBM E-score
1,ATCCACAT,0.103
2,CGCGGTGC,-0.183
3,CTTCCTGA,0.0452
4,AGCGTCCA,-0.147
5,AATATTTG,0.242
6,CAACTTCG,0.0376
7,CCCGGCCG,-0.278
8,GCGTCCTA,-0.0921
9,CCCAGCAC,-0.123
10,AATACTGG,0.104
11,CATACATC,0.102
12,CAAAGCCA,-0.011
13,GGGTACCC,-0.452
14,AGATTCTG,-0.219
15,CGGTTGAC,-0.0195
16,GATTGCGA,0.108
17,CATATCAG,0.064
18,CAGACCCA,-0.187
19,CTGCTAGA,-0.0935
20,CGTAAAGA,0.0398
21,CCACTCCA,-0.0642
22,CATTGCCA,0.103
23,CGAGATCA,0.101
24,AGCCGACG,-0.00612

row,Sequence,PBM E-score
1,TCAAGCAA,-0.15
2,CCGCGTGA,0.142
3,CTTCGGGA,-0.0628
4,CCATTCTA,-0.0038
5,AGTACCTG,0.0401
6,TATCGTCA,0.101
7,CGAAAATC,0.102
8,AGCTACAT,0.00557
9,ACGCGGCT,0.0253
10,ACTTCGTG,-0.0284
11,CCCGCATC,-0.183
12,GATCCGCA,-0.0844
13,TACGGCAA,0.231
14,AGGCTGTC,-0.211
15,CCAGGGTC,-0.224
16,CGAACGAC,0.135
17,CCTGACAA,0.129
18,GAATGGTC,-0.127
19,ACAATGGT,-0.0183
20,CCATAGTC,-0.143
21,AAGCGATT,0.0197
22,AGACCTCG,-0.0204
23,CCCGTCCA,-0.136
24,GATAAGTA,0.165

row,Sequence,PBM E-score
1,AACCCCAA,0.0873
2,ATTCCAGG,-0.0192
3,ACCTGTAC,-0.0609
4,CTATAAGC,0.0338
5,CGCAATCA,0.0506
6,CAGGTACG,-0.191
7,AAGAAAAT,0.273
8,CAAGCGTC,-0.0794
9,AGGCGGGA,0.0533
10,ATGGCTAC,0.0819
11,CATGCGGG,-0.149
12,GACTACTA,0.146
13,GAGACATC,-0.0399
14,GATAAGAC,0.0444
15,ACTTTCAA,0.198
16,GTAACCAA,0.153
17,ACACCGGA,-0.112
18,GCCTGCGC,-0.204
19,GACGTAAA,0.0343
20,GAGACGCA,0.149
21,GTCCAATA,0.101
22,GAAGGGCC,-0.187
23,GCGCGGAA,0.107
24,CAGGTGTA,0.0429

row,Sequence,PBM E-score
1,GCTGCGTA,0.0618
2,CAGTGAAC,0.161
3,CAGTCGCG,-0.0232
4,GGACACAA,0.175
5,CATCATAG,0.0614
6,ATAGCGGG,-0.136
7,CCTACCAC,-0.251
8,CTCTGCTA,-0.184
9,CCGTGAGA,-0.162
10,GGATGTCA,0.113
11,ACGCAGTA,-0.058
12,ATCTTGCG,0.0731
13,ATCACTGG,0.017
14,CACGTTTC,-0.0641
15,ATGCTCAA,-0.00847
16,TATAGTGA,0.088
17,CGCCCACC,-0.00175
18,TCGTAGCA,0.0759
19,GTGTTAAC,-0.015
20,ACTGTAAG,0.131
21,ACTTAAAT,0.0397
22,AGCTTGTA,0.111

# Pulled one by one from the entries so far, 5 records:
row,Sequence,PBM E-score
2,CCGCGTGA,0.142
9,ACGCGGCT,0.0253
24,AGCCGACG,-0.00612
20,GAGACGCA,0.149
19,CTGCTAGA,-0.0935
